Reference: patent US8496942B2, “Therapeutic peptides and uses thereof” (priority 2006, dated 2013)
For some assays here: For at least one compound, name, drawing or mass did not settle the structure. Some of these results come from one statement about several compounds together.

Columns and labels:
[1] = system: peripheral blood mononuclear cells; assay: Phagocytosis of opsonized microspheres by peptide-treated PBMCs (second experiment); format: cell-based, human; conditions: peptide-treated PBMCs plus wortmannin, FIGS. 10B, D, F
Procedure: In a second experiment, streptavidin-coated microspheres, dyed with Dragon Green (0.97 μm diameter, Bangs Laboratories, Inc., Fishers, Ind.) were opsonized with rabbit anti-streptavidin serum (Sigma-Aldrich) and washed with phosphate buffered saline, pH 7.4 (PBS). Human PBMCs were cultured in microtiter plates in RPMI-1640 medium containing 10% fetal bovine serum (FBS) and 1:100 dilution of penicillin-streptomycin solution (Mediatech, Inc., Herndon, Va.) Cultures were washed to remove non-adherent cells, and fresh medium containing FBS, antibiotics, and 50 nM peptide was added to adherent cells for an additional 20 to 24 h. Microspheres were added at approximately a 10:1 ratio to total cells, and after an additional 30 to 60 min of incubation, a solution containing 2% formalin was added. […]
FIGS. 9A-I illustrate phagocytosis of opsonized microspheres by peptide-treated PBMCs. […] The experiment was quantified by counting the number of beads in the phagocytic cells (TABLE 2).
In order to establish that the bead-like material within the cells was indeed engulfed beads, fluorescence was examined. […] Cells were examined by both phase contrast microscopy (left panels) and fluorescence microscopy with blue excitation light (right panels). […]

[2] = system: macrophages in PBMC cultures; assay: Phagocytosis of microspheres opsonized with anti-HIV antibodies; format: cell-based, human; conditions: FIGS. 8C-D
Procedure: The ability of the peptide constructs to stimulate phagocytosis was assessed in two experiments. In the first experiment, a biotin-tagged peptide epitope of a surface protein of HIV-1 was bound to streptvidin on the surface of the beads. An antibody preparation that was raised against this epitope was then bound to the HIV peptide. The beads were then washed and presented to peripheral blood mononuclear cell (PBMC) cultures pretreated with peptides. […] In multiple control cultures, the number of beads within a macrophage-like cell ranged from 0 to 3. […] In the treated cultures, greater than 20 beads were counted in each phagocytic cell. After several subsequent and similar experiments were conducted, a phagocytic index was developed for the activity of macrophages to ingest microspheres opsonized with anti-HIV antibodies (TABLE 1).

Compound | effect of wortmannin on bead uptake [1] | beads counted in each phagocytic cell [2]
COC[C@H]1OC(=O)c2coc3c2[C@@]1(C)C1=C(C3=O)[C@@H]2CCC(=O)[C@@]2(C)C[C@H]1OC(C)=O [wortmannin, reference compound] | inhibition of bead uptake | –
PSSNA: peptide construct containing four copies of the core sequence PSSNA | – | greater than 20 beads
